PMC7734590, “Identification of a Selective RelA Inhibitor Based on DSE-FRET Screening Methods” (International Journal of Molecular Sciences, 2020)

Assay: Autofluorescence of compound in DSE-FRET

## SN 38
Run1, 10 mM as printed
  自家蛍光 (autofluorescence) @ 10 mM Run1: 2.8
Run2, 10 mM as printed
  自家蛍光 (autofluorescence) @ 10 mM Run2: 3.0
average, 10 mM
  自家蛍光 (autofluorescence) @ 10 mM Avg.: 2.9
